Source: PMC3248428
No constants are given. Whether binding was seen depends on the method and setting. In cells and extracts the contact can be indirect. Some binding calls cover weakened binding; strength is not graded here.

Molecular target: T1, STRN (human (endogenous in MCF-7)) (UniProt O43815)
T1 sequence: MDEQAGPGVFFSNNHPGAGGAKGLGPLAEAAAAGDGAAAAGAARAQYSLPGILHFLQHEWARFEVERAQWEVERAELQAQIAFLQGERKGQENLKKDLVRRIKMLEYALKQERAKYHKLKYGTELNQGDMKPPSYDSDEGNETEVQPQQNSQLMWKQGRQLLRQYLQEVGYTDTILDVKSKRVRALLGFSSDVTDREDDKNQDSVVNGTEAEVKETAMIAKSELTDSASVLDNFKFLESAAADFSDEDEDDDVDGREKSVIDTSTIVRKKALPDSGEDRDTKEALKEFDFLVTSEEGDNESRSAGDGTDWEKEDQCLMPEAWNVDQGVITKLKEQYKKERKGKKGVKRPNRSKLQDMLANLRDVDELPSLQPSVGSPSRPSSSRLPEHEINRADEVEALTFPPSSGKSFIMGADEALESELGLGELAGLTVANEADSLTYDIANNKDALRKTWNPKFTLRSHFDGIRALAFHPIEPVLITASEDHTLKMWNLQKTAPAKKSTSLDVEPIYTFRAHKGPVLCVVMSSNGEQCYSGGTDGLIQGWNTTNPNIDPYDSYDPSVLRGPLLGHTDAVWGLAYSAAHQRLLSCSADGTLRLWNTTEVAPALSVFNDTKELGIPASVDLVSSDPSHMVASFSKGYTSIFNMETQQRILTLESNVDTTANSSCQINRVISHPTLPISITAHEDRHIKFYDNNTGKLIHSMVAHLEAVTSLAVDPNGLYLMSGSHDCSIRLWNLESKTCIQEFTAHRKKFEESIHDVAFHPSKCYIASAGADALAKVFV
Test: co-IP; endogenous STRN immunoprecipitated from pre-cleared MCF-7 lysate with Striatin antibody (overnight) and Protein-A beads; rabbit IgG as negative control; Western blot for CTTNBP2NL; buffer Hepes 50 mM pH 7.4, NaCl 150 mM, EDTA 1 mM, Tween-20 0.1%, glycerol 10%

binding: binds
B1: CTTNBP2NL (protein, UniProt Q9P2B4 1-639)
chain: MNLEKLSKPELLTLFSILEGELEARDLVIEALKAQHRDTFIEERYGKYNISDPLMALQRDFETLKEKNDGEKQPVCTNPLSILKVVMKQCKNMQERMLSQLAAAESRHRKVILDLEEERQRHAQDTAEGDDVTYMLEKERERLTQQLEFEKSQVKKFEKEQKKLSSQLEEERSRHKQLSSMLVLECKKATNKAAEEGQKAGELSLKLEKEKSRVSKLEEELAAERKRGLQTEAQVEKQLSEFDIEREQLRAKLNREENRTKTLKEEMESLKKIVKDLEASHQHSSPNEQLKKPVTVSKGTATEPLMLMSVFCQTESFPAERTHGSNIAKMTNTGLPGPATPAYSYAKTNGHCDPEIQTTRELTAGNNVENQVPPREKSVALAQEKPVENGGCPVGIETPVPMPSPLSSSGSSLSPSSTASSSLTSSPCSSPVLTKRLLGSSASSPGYQSSYQVGINQRFHAARHKFQSQADQDQQASGLQSPPSRDLSPTLIDNSAAKQLARNTVTQVLSRFTSQQGPIKPVSPNSSPFGTDYRNLANTANPRGDTSHSPTPGKVSSPLSPLSPGIKSPTIPRAERGNPPPIPPKKPGLTPSPSATTPLTKTHSQAASLTTAEDLASSCSSNTVVANGKDVELLLPTSS
